Our source for the binding values is PMC6321256.

Amino acid sequences for entries named in this document (tags omitted). Residues count along the entry.
UniProt P32248, residues 25-378: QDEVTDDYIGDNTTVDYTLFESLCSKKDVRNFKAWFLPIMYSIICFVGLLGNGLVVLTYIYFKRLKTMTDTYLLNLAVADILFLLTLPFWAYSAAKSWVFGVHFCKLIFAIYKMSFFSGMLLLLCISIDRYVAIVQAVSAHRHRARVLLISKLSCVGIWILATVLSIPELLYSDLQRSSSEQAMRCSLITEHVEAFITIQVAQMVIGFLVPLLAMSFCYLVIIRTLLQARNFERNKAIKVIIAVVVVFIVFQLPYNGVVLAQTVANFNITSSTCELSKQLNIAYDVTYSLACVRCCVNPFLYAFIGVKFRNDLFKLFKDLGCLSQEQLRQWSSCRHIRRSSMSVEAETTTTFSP
UniProt O00585, residues 24-134: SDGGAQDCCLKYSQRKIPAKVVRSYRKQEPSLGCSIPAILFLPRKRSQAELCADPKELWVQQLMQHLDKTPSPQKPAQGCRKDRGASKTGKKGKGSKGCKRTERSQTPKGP
UniProt P32121: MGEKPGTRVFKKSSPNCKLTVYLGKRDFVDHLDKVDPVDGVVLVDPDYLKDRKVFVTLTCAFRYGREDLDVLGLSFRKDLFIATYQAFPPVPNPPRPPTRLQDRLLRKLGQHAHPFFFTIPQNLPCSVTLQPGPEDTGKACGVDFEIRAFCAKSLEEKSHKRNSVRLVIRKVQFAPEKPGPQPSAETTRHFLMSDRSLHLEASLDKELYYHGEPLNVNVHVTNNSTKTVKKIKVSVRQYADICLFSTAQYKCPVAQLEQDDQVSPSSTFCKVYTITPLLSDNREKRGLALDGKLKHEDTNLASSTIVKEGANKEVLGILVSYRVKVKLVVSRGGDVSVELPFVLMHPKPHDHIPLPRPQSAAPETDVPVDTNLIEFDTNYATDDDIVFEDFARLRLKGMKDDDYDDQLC

Results are given in words; binding and its absence hold for the method and conditions named. For some assays here: In cells and extracts the contact can be indirect. Some binding calls cover weakened binding; strength is not graded here. For some assays here: Sequences can lack the tags named with a protein.

For experiment [1], the target named is T1, ACKR4-eGFP (human) (UniProt Q9NPB9).
T1 sequence: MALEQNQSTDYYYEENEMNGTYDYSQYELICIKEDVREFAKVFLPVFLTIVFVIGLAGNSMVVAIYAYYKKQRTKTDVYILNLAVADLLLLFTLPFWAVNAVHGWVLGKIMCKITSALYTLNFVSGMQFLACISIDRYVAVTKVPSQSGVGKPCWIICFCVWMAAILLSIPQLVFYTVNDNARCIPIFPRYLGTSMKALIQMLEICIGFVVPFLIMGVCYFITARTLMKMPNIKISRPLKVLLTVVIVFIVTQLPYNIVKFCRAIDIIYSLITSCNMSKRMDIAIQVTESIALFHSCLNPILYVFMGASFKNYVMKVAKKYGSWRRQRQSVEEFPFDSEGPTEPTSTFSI
As to the kind of experiment: live-cell confocal time-lapse microscopy of fluorescent ligand on transfected cells; 100 nM chemokine-mRFP added to the medium of HEK293 cells transiently transfected with receptor-eGFP; medium with 20 mM HEPES pH 7.5, temperature-controlled chamber; untransfected cells in the same dish as control; only the binder purified.

The target in experiment [2] is CCR7-EYFP (UniProt P32248). As to the kind of experiment: FRET or BRET; BRET in HEK293 cells transiently transfected with CCR7-EYFP (or CCR7-HA as control) and β-arrestin2-hRLuc at 3:1; PBS with 5 mM glucose, 10 µM coelenterazine H, 37 °C; cells stimulated with 50 nM CCL19, CCL19-mRFP, CCL21 or CCL21-mRFP. Background: BRET reads energy transfer from a luciferase to a nearby fluorophore.

Consider “CCL21-mRFP (from UniProt O00585 24-134) (ligand)”, for which, in experiment [1], the binding entry is listed as “binds”. For “β-arrestin2-hRLuc (from UniProt P32121 1-409)”, the binding entry in experiment [2] was “binds”.
